Values quoted from earlier work, collected in patent publication US20050202111A1, “Anti-Parkinson's disease pharmaceutical and method of use” (priority 2004, published 2005).
At least one structure is not confirmed: it was looked up by name or label, or the drawing left a doubt.

System: patients with Parkinson's disease
Conditions: cited from earlier work

## NC(=O)C1=CN([C@@H]2O[C@H](COP(=O)(O)OP(=O)(O)OC[C@H]3O[C@@H](n4cnc5c(N)ncnc54)[C@H](O)[C@@H]3O)[C@@H](O)[C@H]2O)C=CC1 [NADH, nicotinamide adenine dinucleotide]
human, in vivo
  urine homovanillic acid level: increased significantly
Parenteral synthetic NADH, all patients
  clinical effect: beneficial clinical effect was observed
